Results are given in words; binding and its absence hold for the method and conditions named. For some of these results: Binding seen in cells or lysates may run through a third protein. Some entries that bind do so weakly or less than the wild type. For some of these results: Tags and fused reporters may be left off the sequences shown.

In assay [1] the target is T1, STRUBBELIG intra-cellular domain (SUBICD, residues 371 to 768) in pGBKT7 (Arabidopsis thaliana) (UniProt Q8RWZ1).
T1 sequence: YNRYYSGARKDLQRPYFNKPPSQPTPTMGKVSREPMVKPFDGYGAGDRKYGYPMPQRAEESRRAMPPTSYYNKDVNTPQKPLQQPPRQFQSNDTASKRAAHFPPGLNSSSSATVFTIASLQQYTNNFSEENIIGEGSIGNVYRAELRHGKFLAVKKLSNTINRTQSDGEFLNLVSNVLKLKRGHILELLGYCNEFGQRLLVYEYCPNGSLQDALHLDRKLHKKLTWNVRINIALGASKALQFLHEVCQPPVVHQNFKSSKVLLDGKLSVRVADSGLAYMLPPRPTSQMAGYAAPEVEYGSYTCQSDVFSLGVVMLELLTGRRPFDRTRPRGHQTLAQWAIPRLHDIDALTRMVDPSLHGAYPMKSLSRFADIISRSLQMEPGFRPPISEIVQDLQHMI
Briefly: two-hybrid; Matchmaker system (Clontech), yeast strain AH109; SUB fragments in pGBKT7, AN in pACT; growth on SC-LWH at 30°C with 2.5 mM 3-amino-1,2,4-triazole.

Assay [2] has as its target T2, STRUBBELIG extra-cellular domain (SUBECD, residues 26 to 340) in pGBKT7 (Arabidopsis thaliana) (UniProt Q8RWZ1).
T2 sequence: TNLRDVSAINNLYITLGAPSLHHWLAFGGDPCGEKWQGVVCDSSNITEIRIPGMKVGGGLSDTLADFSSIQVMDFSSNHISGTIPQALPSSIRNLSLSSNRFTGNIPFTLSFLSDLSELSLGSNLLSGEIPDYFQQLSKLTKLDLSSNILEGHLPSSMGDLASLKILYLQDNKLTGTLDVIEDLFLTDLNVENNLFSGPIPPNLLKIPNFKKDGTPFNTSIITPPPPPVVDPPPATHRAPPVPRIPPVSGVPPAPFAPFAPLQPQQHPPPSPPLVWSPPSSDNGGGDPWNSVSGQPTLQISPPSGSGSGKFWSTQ
The assay is described as above.

For assay [3], the target named is T3, STRUBBELIG intra-cellular domain variant SUBICD-R599C in pGBKT7 (Arabidopsis thaliana) (UniProt Q8RWZ1).
T3 sequence: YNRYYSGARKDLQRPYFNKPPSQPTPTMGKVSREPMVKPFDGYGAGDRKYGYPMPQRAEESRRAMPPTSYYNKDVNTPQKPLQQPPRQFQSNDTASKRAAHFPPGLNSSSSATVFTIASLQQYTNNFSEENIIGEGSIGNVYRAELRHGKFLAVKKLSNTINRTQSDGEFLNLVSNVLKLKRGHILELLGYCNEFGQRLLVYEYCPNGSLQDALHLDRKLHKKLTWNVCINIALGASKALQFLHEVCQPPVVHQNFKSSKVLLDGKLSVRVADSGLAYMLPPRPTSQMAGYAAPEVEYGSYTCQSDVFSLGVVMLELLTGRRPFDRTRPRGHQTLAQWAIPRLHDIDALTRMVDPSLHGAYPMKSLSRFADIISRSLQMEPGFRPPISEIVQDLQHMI
The assay is described as above.

Assay [4] addresses T4, MBP:SUBICD (intra-cellular domain of STRUBBELIG fused to maltose-binding protein) (Arabidopsis thaliana) (UniProt Q8RWZ1).
T4 sequence: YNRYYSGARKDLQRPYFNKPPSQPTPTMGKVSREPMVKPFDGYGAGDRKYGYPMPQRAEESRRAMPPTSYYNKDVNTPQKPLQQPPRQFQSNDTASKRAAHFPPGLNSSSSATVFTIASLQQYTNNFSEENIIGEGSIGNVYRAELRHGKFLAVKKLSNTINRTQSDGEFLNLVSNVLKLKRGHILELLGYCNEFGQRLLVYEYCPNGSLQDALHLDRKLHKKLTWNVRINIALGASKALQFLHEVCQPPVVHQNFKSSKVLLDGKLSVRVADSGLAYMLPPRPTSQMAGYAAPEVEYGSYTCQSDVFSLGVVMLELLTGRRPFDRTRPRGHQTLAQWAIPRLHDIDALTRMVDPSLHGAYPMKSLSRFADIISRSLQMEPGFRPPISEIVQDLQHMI
Briefly: pull-down; MBP-tagged proteins held on amylose resin, incubated with equal amounts of GST:AN lysate for 4 hours at 4°C; western blot with anti-AN antibody; only the target purified.

B1: ANGUSTIFOLIA (AN) in pACT, yeast two-hybrid prey (protein, UniProt O23702 1-636)
chain: MSKIRSSATMPHRDQPSPASPHVVTLNCIEDCALEQDSLAGVAGVEYVPLSRIADGKIESATAVLLHSLAYLPRAAQRRLRPHQLILCLGSADRAVDSTLAADLGLRLVHVDTSRAEEIADTVMALILGLLRRTHLLSRHALSASGWLGSLQPLCRGMRRCRGMVLGIVGRSVSARYLASRSLAFKMSVLYFDVPEGDEERIRPSRFPRAARRMDTLNDLLAASDVISLHCALTNDTVQILNAECLQHIKPGAFLVNTGSCQLLDDCAVKQLLIDGTIAGCALDGAEGPQWMEAWVKEMPNVLILPRSADYSEEVWMEIREKAISILHSFFLDGVIPSNTVSDEEVEESEASEEEEQSPSKHEKLAIVESTSRQQGESTLTSTEIVRREASELKESLSPGQQHVSQNTAVKPEGRRSRSGKKAKKRHSQQKYMQKTDGSSGLNEESTSRRDDIAMSDTEEVLSSSSRCASPEDSRSRKTPLEVMQESSPNQLVMSSKKFIGKSSELLKDGYVVALYAKDLSGLHVSRQRTKNGGWFLDTLSNVSKRDPAAQFIIAYRNKDTVGLRSFAAGGKLLQINRRMEFVFASHSFDVWESWSLEGSLDECRLVNCRNSSAVLDVRVEILAMVGDDGITRWID
In the case of B1, the binding entry in assay [1] was “binds”; in assay [2], “no binding”; in assay [3] it was “no binding”.

B2: GST:AN (fusion of glutathione-S-transferase to ANGUSTIFOLIA) (protein, UniProt O23702 1-636)
chain: MSKIRSSATMPHRDQPSPASPHVVTLNCIEDCALEQDSLAGVAGVEYVPLSRIADGKIESATAVLLHSLAYLPRAAQRRLRPHQLILCLGSADRAVDSTLAADLGLRLVHVDTSRAEEIADTVMALILGLLRRTHLLSRHALSASGWLGSLQPLCRGMRRCRGMVLGIVGRSVSARYLASRSLAFKMSVLYFDVPEGDEERIRPSRFPRAARRMDTLNDLLAASDVISLHCALTNDTVQILNAECLQHIKPGAFLVNTGSCQLLDDCAVKQLLIDGTIAGCALDGAEGPQWMEAWVKEMPNVLILPRSADYSEEVWMEIREKAISILHSFFLDGVIPSNTVSDEEVEESEASEEEEQSPSKHEKLAIVESTSRQQGESTLTSTEIVRREASELKESLSPGQQHVSQNTAVKPEGRRSRSGKKAKKRHSQQKYMQKTDGSSGLNEESTSRRDDIAMSDTEEVLSSSSRCASPEDSRSRKTPLEVMQESSPNQLVMSSKKFIGKSSELLKDGYVVALYAKDLSGLHVSRQRTKNGGWFLDTLSNVSKRDPAAQFIIAYRNKDTVGLRSFAAGGKLLQINRRMEFVFASHSFDVWESWSLEGSLDECRLVNCRNSSAVLDVRVEILAMVGDDGITRWID
Regarding B2, the binding entry in assay [4] was “binds”.
